# Assay results taken from publication PMC5240567, “New Insights into Cooperative Binding of Homeodomain Transcription Factors PREP1 and PBX1 to DNA”.
# These are yes or no findings as the source states them, for the method shown.
# T1: PBX1HD (UniProt P40424 227-317)
# T1 sequence: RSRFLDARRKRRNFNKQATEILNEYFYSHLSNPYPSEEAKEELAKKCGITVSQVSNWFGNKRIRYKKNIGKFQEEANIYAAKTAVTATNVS
# Target: T1, PBX1HD
# Experiment: native gel or EMSA; preformed HD:PMH DNA complex at fixed molar ratio titrated with the second HD (2, 4, 8 and in one case 16 uM); 20 mM Na/K phosphate pH 7.2, 150 mM NaCl, 5% glycerol, 1 mM TCEP; 10% non-denaturing gel, 0.5x TBE, 4 °C; ethidium bromide and coomassie staining; the slow band was identified by mass spectrometry; both purified
binder,measurement,value
"PREP1_(hd-N) (PREP1 residues 240-325) (domain or fragment, UniProt P55347 240-325) QLQLQLNQDLSILHQDDGSSKNKRGVLPKHATNVMRSWLFQHIGHPYPTEDEKKQIAAQTNLTLLQVNNWFINARRRILQPMLDSS",binding,"no binding (tested: PREP1hd-N at 2, 4, 8, and 16 μM)"
